Results: patent publication US12729225B2, “Non-canonical SWI/SNF complex and uses thereof” (Dana-Farber Cancer Institute, Inc., priority 2018, dated 2026)

System: mSWI/SNF complexes
Assay: mSWI/SNF complex purification with HA-tagged baits and mass spectrometry (peptide counts)
Parameters: species or system human
[1] = 293_HA-BRD7 bait purification, mass spectrometry, total peptides per co-purified protein
[2] = 293_HA-BRD7 bait purification, mass spectrometry, unique peptides per co-purified protein

B1: SRRM1 (protein, UniProt Q8IYB3 1-904, looked up)
Serine/arginine repetitive …: MDAGFFRGTSAEQDNRFSNKQKKLLKQLKFAECLEKKVDMSKVNLEVIKPWITKRVTEILGFEDDVVIEFIFNQLEVKNPDSKMMQINLTGFLNGKNAREFMGELWPLLLSAQENIAGIPSAFLELKKEEIKQRQIEQEKLASMKKQDEDKDKRDKEEKESSREKRERSRSPRRRKSRSPSPRRRSSPVRRERKRSHSRSPRHRTKSRSPSPAPEKKEKTPELPEPSVKVKEPSVQEATSTSDILKVPKPEPIPEPKEPSPEKNSKKEKEKEKTRPRSRSRSKSRSRTRSRSPSHTRPRRRHRSRSRSYSPRRRPSPRRRPSPRRRTPPRRMPPPPRHRRSRSPVRRRRRSSASLSGSSSSSSSSRSRSPPKKPPKRTSSPPRKTRRLSPSASPPRRRHRPSPPATPPPKTRHSPTPQQSNRTRKSRVSVSPGRTSGKVTKHKGTEKRESPSPAPKPRKVELSESEEDKGGKMAAADSVQQRRQYRRQNQQSSSDSGSSSSSEDERPKRSHVKNGEVGRRRRHSPSRSASPSPRKRQKETSPRGRRRRSPSPPPTRRRRSPSPAPPPRRRRTPTPPPRRRTPSPPPRRRSPSPRRYSPPIQRRYSPSPPPKRRTASPPPPPKRRASPSPPPKRRVSHSPPPKQRSSPVTKRRSPSLSSKHRKGSSPSRSTREARSPQPNKRHSPSPRPRAPQTSSSPPPVRRGASSSPQRRQSPSPSTRPIRRVSRTPEPKKIKKAASPSPQSVRRVSSSRSVSGSPEPAAKKPPAPPSPVQSQSPSTNWSPAVPVKKAKSPTPSPSPPRNSDQEGGGKKKKKKKDKKHKKDKKHKKHKKHKKEKAVAAAAAAAVTPAAIAAATTTLAQEEPVAAPEPKKETESEAEDNLDDLEKHLREKALRSMRKAQVSPQS
With B1 the Total [1] was 3 and the Unique [2] was 3.

B2: ACTN1 (protein, UniProt P12814 1-892, looked up)
Alpha-actinin-1: MDHYDSQQTNDYMQPEEDWDRDLLLDPAWEKQQRKTFTAWCNSHLRKAGTQIENIEEDFRDGLKLMLLLEVISGERLAKPERGKMRVHKISNVNKALDFIASKGVKLVSIGAEEIVDGNVKMTLGMIWTIILRFAIQDISVEETSAKEGLLLWCQRKTAPYKNVNIQNFHISWKDGLGFCALIHRHRPELIDYGKLRKDDPLTNLNTAFDVAEKYLDIPKMLDAEDIVGTARPDEKAIMTYVSSFYHAFSGAQKAETAANRICKVLAVNQENEQLMEDYEKLASDLLEWIRRTIPWLENRVPENTMHAMQQKLEDFRDYRRLHKPPKVQEKCQLEINFNTLQTKLRLSNRPAFMPSEGRMVSDINNAWGCLEQVEKGYEEWLLNEIRRLERLDHLAEKFRQKASIHEAWTDGKEAMLRQKDYETATLSEIKALLKKHEAFESDLAAHQDRVEQIAAIAQELNELDYYDSPSVNARCQKICDQWDNLGALTQKRREALERTEKLLETIDQLYLEYAKRAAPFNNWMEGAMEDLQDTFIVHTIEEIQGLTTAHEQFKATLPDADKERLAILGIHNEVSKIVQTYHVNMAGTNPYTTITPQEINGKWDHVRQLVPRRDQALTEEHARQQHNERLRKQFGAQANVIGPWIQTKMEEIGRISIEMHGTLEDQLSHLRQYEKSIVNYKPKIDQLEGDHQLIQEALIFDNKHTNYTMEHIRVGWEQLLTTIARTINEVENQILTRDAKGISQEQMNEFRASFNHFDRDHSGTLGPEEFKACLISLGYDIGNDPQGEAEFARIMSIVDPNRLGVVTFQAFIDFMSRETADTDTADQVMASFKILAGDKNYITMDELRRELPPDQAEYCIARMAPYTGPDSVPGALDYMSFSTALYGESDL
B2 gave a Total [1] of 3 and a Unique [2] of 3.

B3: NUP160 (protein, UniProt Q12769 1-1436, looked up)
Nuclear pore complex protein …: MLHLSAAPPAPPPEVTATARPCLCSVGRRGDGGKMAAAGALERSFVELSGAERERPRHFREFTVCSIGTANAVAGAVKYSESAGGFYYVESGKLFSVTRNRFIHWKTSGDTLELMEESLDINLLNNAIRLKFQNCSVLPGGVYVSETQNRVIILMLTNQTVHRLLLPHPSRMYRSELVVDSQMQSIFTDIGKVDFTDPCNYQLIPAVPGISPNSTASTAWLSSDGEALFALPCASGGIFVLKLPPYDIPGMVSVVELKQSSVMQRLLTGWMPTAIRGDQSPSDRPLSLAVHCVEHDAFIFALCQDHKLRMWSYKEQMCLMVADMLEYVPVKKDLRLTAGTGHKLRLAYSPTMGLYLGIYMHAPKRGQFCIFQLVSTESNRYSLDHISSLFTSQETLIDFALTSTDIWALWHDAENQTVVKYINFEHNVAGQWNPVFMQPLPEEEIVIRDDQDPREMYLQSLFTPGQFTNEALCKALQIFCRGTERNLDLSWSELKKEVTLAVENELQGSVTEYEFSQEEFRNLQQEFWCKFYACCLQYQEALSHPLALHLNPHTNMVCLLKKGYLSFLIPSSLVDHLYLLPYENLLTEDETTISDDVDIARDVICLIKCLRLIEESVTVDMSVIMEMSCYNLQSPEKAAEQILEDMITIDVENVMEDICSKLQEIRNPIHAIGLLIREMDYETEVEMEKGFNPAQPLNIRMNLTQLYGSNTAGYIVCRGVHKIASTRFLICRDLLILQQLLMRLGDAVIWGTGQLFQAQQDLLHRTAPLLLSYYLIKWGSECLATDVPLDTLESNLQHLSVLELTDSGALMANRFVSSPQTIVELFFQEVARKHIISHLFSQPKAPLSQTGLNWPEMITAITSYLLQLLWPSNPGCLFLECLMGNCQYVQLQDYIQLLHPWCQVNVGSCRFMLGRCYLVTGEGQKALECFCQAASEVGKEEFLDRLIRSEDGEIVSTPRLQYYDKVLRLLDVIGLPELVIQLATSAITEAGDDWKSQATLRTCIFKHHLDLGHNSQAYEALTQIPDSSRQLDCLRQLVVVLCERSQLQDLVEFPYVNLHNEVVGIIESRARAVDLMTHNYYELLYAFHIYRHNYRKAGTVMFEYGMRLGREVRTLRGLEKQGNCYLAALNCLRLIRPEYAWIVQPVSGAVYDRPGASPKRNHDGECTAAPTNRQIEILELEDLEKECSLARIRLTLAQHDPSAVAVAGSSSAEEMVTLLVQAGLFDTAISLCQTFKLPLTPVFEGLAFKCIKLQFGGEAAQAEAWAWLAANQLSSVITTKESSATDEAWRLLSTYLERYKVQNNLYHHCVINKLLSHGVPLPNWLINSYKKVDAAELLRLYLNYDLLEEAVDLVSEYVDAVLGKGHQYFGIEFPLSATAPMVWLPYSSIDQLLQALGENSANSHNIALSQKILDKLEDYQQKVDKATRDLLYRRTL
B3 was tested, and the Total [1] was 3 and the Unique [2] was 3.

B4: CAAP1 (protein, UniProt Q9H8G2 1-361, looked up)
Caspase activity and …: MTGKKSSREKRRKRSSQEAAAALAAPDIVPALASGSSGSTSGCGSAGGCGSVSCCGNANFSGSVTGGGSGGSCWGGSSVERSERRKRRSTDSSSVSGSLQQETKYILPTLEKELFLAEHSDLEEGGLDLTVSLKPVSFYISDKKEMLQQCFCIIGEKKLQKMLPDVLKNCSIEEIKKLCQEQLELLSEKKILKILEGDNGMDSDMEEEADDGSKMGSDLVSQQDICIDSASSVRENKQPEGLELKQGKGEDSDVLSINADAYDSDIEGPCNEEAAAPEAPENTVQSEAGQIDDLEKDIEKSVNEILGLAESSPNEPKAATLAVPPPEDVQPSAQQLELLELEMRARAIKALMKAGDIKKPA
For B4, the Total [1] was 3 and the Unique [2] was 3.

B5: TFB1M (protein, UniProt Q8WVM0 28-346, looked up)
Dimethyladenosine transferase …: QAAKQLSQNFLLDLRLTDKIVRKAGNLTNAYVYEVGPGPGGITRSILNADVAELLVVEKDTRFIPGLQMLSDAAPGKLRIVHGDVLTFKVEKAFSESLKRPWEDDPPNVHIIGNLPFSVSTPLIIKWLENISCRDGPFVYGRTQMTLTFQKEVAERLAANTGSKQRSRLSVMAQYLCNVRHIFTIPGQAFVPKPEVDVGVVHFTPLIQPKIEQPFKLVEKVVQNVFQFRRKYCHRGLRMLFPEAQRLESTGRLLELADIDPTLRPRQLSISHFKSLCDVYRKMCDEDPQLFAYNFREELKRRKSKNEEKEEDDAENYRL
B5 was tested, and the Total [1] was 3 and the Unique [2] was 3.

B6: RRP1 (protein, UniProt P56182 1-461, looked up)
Ribosomal RNA processing …: MVSRVQLPPEIQLAQRLAGNEQVTRDRAVRKLRKYIVARTQRAAGGFTHDELLKVWKGLFYCMWMQDKPLLQEELGRTISQLVHAFQTTEAQHLFLQAFWQTMNREWTGIDRLRLDKFYMLMRMVLNESLKVLKMQGWEERQIEELLELLMTEILHPSSQAPNGVKSHFIEIFLEELTKVGAEELTADQNLKFIDPFCRIAARTKDSLVLNNITRGIFETIVEQAPLAIEDLLNELDTQDEEVASDSDESSEGGERGDALSQKRSEKPPAGSICRAEPEAGEEQAGDDRDSGGPVLQFDYEAVANRLFEMASRQSTPSQNRKRLYKVIRKLQDLAGGIFPEDEIPEKACRRLLEGRRQKKTKKQKRLLRLQQERGKGEKEPPSPGMERKRSRRRGVGADPEARAEAGEQPGTAERALLRDQPRGRGQRGARQRRRTPRPLTSARAKAANVQEPEKKKKRRE
Molecule B6 has a Total [1] of 3 and a Unique [2] of 3.

B7: KRT9 (protein, UniProt P35527 1-623, looked up)
Keratin, type I cytoskeletal 9: MSCRQFSSSYLSRSGGGGGGGLGSGGSIRSSYSRFSSSGGGGGGGRFSSSSGYGGGSSRVCGRGGGGSFGYSYGGGSGGGFSASSLGGGFGGGSRGFGGASGGGYSSSGGFGGGFGGGSGGGFGGGYGSGFGGFGGFGGGAGGGDGGILTANEKSTMQELNSRLASYLDKVQALEEANNDLENKIQDWYDKKGPAAIQKNYSPYYNTIDDLKDQIVDLTVGNNKTLLDIDNTRMTLDDFRIKFEMEQNLRQGVDADINGLRQVLDNLTMEKSDLEMQYETLQEELMALKKNHKEEMSQLTGQNSGDVNVEINVAPGKDLTKTLNDMRQEYEQLIAKNRKDIENQYETQITQIEHEVSSSGQEVQSSAKEVTQLRHGVQELEIELQSQLSKKAALEKSLEDTKNRYCGQLQMIQEQISNLEAQITDVRQEIECQNQEYSLLLSIKMRLEKEIETYHNLLEGGQEDFESSGAGKIGLGGRGGSGGSYGRGSRGGSGGSYGGGGSGGGYGGGSGSRGGSGGSYGGGSGSGGGSGGGYGGGSGGGHSGGSGGGHSGGSGGNYGGGSGSGGGSGGGYGGGSGSRGGSGGSHGGGSGFGGESGGSYGGGEEASGSGGGYGGGSGKSSHS
In the case of B7, the Total (293_HA-BRD7: HA-BRD7 bait purification, total peptide count per co-purified protein) is reported as 29 and the Unique (293_HA-BRD7: HA-BRD7 bait purification, unique peptide count per co-purified protein) is reported as 23.

B8: PRPF19 (protein, UniProt Q9UMS4 2-504, looked up)
Pre-mRNA-processing factor 19: SLICSISNEVPEHPCVSPVSNHVYERRLIEKYIAENGTDPINNQPLSEEQLIDIKVAHPIRPKPPSATSIPAILKALQDEWDAVMLHSFTLRQQLQTTRQELSHALYQHDAACRVIARLTKEVTAAREALATLKPQAGLIVPQAVPSSQPSVVGAGEPMDLGELVGMTPEIIQKLQDKATVLTTERKKRGKTVPEELVKPEELSKYRQVASHVGLHSASIPGILALDLCPSDTNKILTGGADKNVVVFDKSSEQILATLKGHTKKVTSVVFHPSQDLVFSASPDATIRIWSVPNASCVQVVRAHESAVTGLSLHATGDYLLSSSDDQYWAFSDIQTGRVLTKVTDETSGCSLTCAQFHPDGLIFGTGTMDSQIKIWDLKERTNVANFPGHSGPITSIAFSENGYYLATAADDSSVKLWDLRKLKNFKTLQLDNNFEVKSLIFDQSGTYLALGGTDVQIYICKQWTEILHFTEHSGLTTGVAFGHHAKFIASTGMDRSLKFYSL
In the case of B8, the Total [1] is reported as 3 and the Unique [2] is reported as 3.
